Experimental data as given in paper doi:10.1101/2024.07.29.605519.
Results are given in words; binding and its absence hold for the method and conditions named. Binding seen in cells or lysates may run through a third protein. Some results given as binding are weak or reduced against the parent protein; the word gives no strength. Where a sequence is shown, tags or fusion partners need not be part of it.

By UniProt entry, the sequences of proteins in these tests, tags left out.
UniProt Q39026: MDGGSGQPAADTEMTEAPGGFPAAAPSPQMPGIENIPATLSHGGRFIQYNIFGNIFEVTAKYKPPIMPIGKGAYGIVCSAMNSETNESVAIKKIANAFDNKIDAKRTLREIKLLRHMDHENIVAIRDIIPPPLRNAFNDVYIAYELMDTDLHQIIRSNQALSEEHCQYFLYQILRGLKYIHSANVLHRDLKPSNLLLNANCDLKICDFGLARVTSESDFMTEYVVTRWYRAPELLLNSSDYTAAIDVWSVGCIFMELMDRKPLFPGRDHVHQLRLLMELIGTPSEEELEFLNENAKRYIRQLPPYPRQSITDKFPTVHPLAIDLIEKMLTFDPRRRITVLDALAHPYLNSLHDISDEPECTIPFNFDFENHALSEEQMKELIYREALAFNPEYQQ

Target: T1, SCRM-nYFP (Arabidopsis) (UniProt Q9LSE2)
T1 sequence: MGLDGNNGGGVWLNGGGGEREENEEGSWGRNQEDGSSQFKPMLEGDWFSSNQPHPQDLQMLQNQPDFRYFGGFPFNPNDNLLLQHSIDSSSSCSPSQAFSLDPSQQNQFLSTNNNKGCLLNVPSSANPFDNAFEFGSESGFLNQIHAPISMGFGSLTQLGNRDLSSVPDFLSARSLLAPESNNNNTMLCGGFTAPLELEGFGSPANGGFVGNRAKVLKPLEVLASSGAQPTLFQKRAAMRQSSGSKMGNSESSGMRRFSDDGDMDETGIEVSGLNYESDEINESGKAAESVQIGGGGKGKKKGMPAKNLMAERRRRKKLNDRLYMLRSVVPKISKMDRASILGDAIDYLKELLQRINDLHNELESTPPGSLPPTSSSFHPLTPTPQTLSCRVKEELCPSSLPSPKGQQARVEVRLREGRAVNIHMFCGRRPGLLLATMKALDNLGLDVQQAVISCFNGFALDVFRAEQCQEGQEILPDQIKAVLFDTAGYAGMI
Experiment: split reporter; ratiometric BiFC (2in1 system, pBiFCt-2in1-CC) in N. benthamiana leaf epidermis; nYFP and cYFP fusions and 35S::RFP on one plasmid; YFP/RFP ratio in nuclei; mock or 100 μM kC9 for two days

binding: binds
Substance: MPK6-cYFP (from UniProt Q39026 1-395)
